According to article PMC4039008:
Results are given in words; binding and its absence hold for the method and conditions named. Some entries that bind do so weakly or less than the wild type.

Target: AtCOPT6 (A. thaliana) (UniProt Q8GWP3)
Assay: two-hybrid; split-ubiquitin membrane yeast two-hybrid (MYTH); bait COPT-Cub-PLV in THY.AP4, prey COPT-NubG in THY.AP5; diploid cells, 2 days of growth on SC medium lacking adenine and histidine; verified by beta-galactosidase assay

- binding: binds
B1: AtCOPT6 (protein, UniProt Q8GWP3 1-145)
chain: MDHGNMPPSSPSSMVNHTNSNMIMMHMTFFWGKNTEILFSGWPGTSLGMYVLCLIVVFLLAVIVEWLAHSSILRGRGSTSRAKGLVQTAVYTLKTGLAYLVMLAVMSFNGGVFIVAIAGFAVGFMLFGSTAFKNPSDDEKPFEQL
